From publication PMC5035054 come the findings set out here.

Protein sequences, listed by entry. Tags and fused reporters are not part of them.
UniProt P08579: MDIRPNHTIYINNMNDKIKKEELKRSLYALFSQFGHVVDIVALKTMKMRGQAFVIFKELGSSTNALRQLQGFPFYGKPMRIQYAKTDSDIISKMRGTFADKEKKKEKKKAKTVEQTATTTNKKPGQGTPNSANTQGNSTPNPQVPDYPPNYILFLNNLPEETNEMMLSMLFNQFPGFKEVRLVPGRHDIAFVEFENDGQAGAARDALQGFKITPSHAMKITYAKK

The target of this assay is FLAG-V5-tagged U2-B” (FV5-U2-B”) (UniProt P08579). Kind of assay: affinity purification with mass spectrometry; in vitro splicing reaction of NEB” nuclear extract with AdML pre-mRNA and ATPγS, Sephacryl-S500 gel filtration, pooled spliceosome fractions on anti-FLAG M2 Affinity Gel, mass spectrometry; two independent experiments. (In general: Size exclusion chromatography separates by hydrodynamic size, large species first.)

Results are given in words; binding and its absence hold for the method and conditions named. Binding seen in cells or lysates may run through a third protein. These calls come from enrichment with a bait or labelling near it, and not all partners need be listed. Where a sequence is shown, tags or fusion partners need not be part of it.

B1: TSPYL1 (protein, UniProt Q9H0U9 1-437)
chain: MSGLDGVKRTTPLQTHSIIISDQVPSDQDAHQYLRLRDQSEATQVMAEPGEGGSETVALPPPPPSEEGGVPQDAAGRGGTPQIRVVGGRGHVAIKAGQEEGQPPAEGLAAASVVMAADRSLKKGVQGGEKALEICGAQRSASELTAGAEAEAEEVKTGKCATVSAAVAERESAEVVKEGLAEKEVMEEQMEVEEQPPEGEEIEVAEEDRLEEEAREEEGPWPLHEALRMDPLEAIQLELDTVNAQADRAFQQLEHKFGRMRRHYLERRNYIIQNIPGFWMTAFRNHPQLSAMIRGQDAEMLRYITNLEVKELRHPRTGCKFKFFFRRNPYFRNKLIVKEYEVRSSGRVVSLSTPIIWRRGHEPQSFIRRNQDLICSFFTWFSDHSLPESDKIAEIIKEDLWPNPLQYYLLREGVRRARRRPLREPVEIPRPFGFQSG
Take B1: the binding result is on record as “binds”.

B2: C14ORF43 (protein, UniProt Q6PJG2 1-1045)
chain: MNLQAQPKAQNKRKRCLFGGQEPAPKEQPPPLQPPQQSIRVKEEQYLGHEGPGGAVSTSQPVELPPPSSLALLNSVVYGPERTSAAMLSQQVASVKWPNSVMAPGRGPERGGGGGVSDSSWQQQPGQPPPHSTWNCHSLSLYSATKGSPHPGVGVPTYYNHPEALKREKAGGPQLDRYVRPMMPQKVQLEVGRPQAPLNSFHAAKKPPNQSLPLQPFQLAFGHQVNRQVFRQGPPPPNPVAAFPPQKQQQQQQPQQQQQQQQAALPQMPLFENFYSMPQQPSQQPQDFGLQPAGPLGQSHLAHHSMAPYPFPPNPDMNPELRKALLQDSAPQPALPQVQIPFPRRSRRLSKEGILPPSALDGAGTQPGQEATGNLFLHHWPLQQPPPGSLGQPHPEALGFPLELRESQLLPDGERLAPNGREREAPAMGSEEGMRAVSTGDCGQVLRGGVIQSTRRRRRASQEANLLTLAQKAVELASLQNAKDGSGSEEKRKSVLASTTKCGVEFSEPSLATKRAREDSGMVPLIIPVSVPVRTVDPTEAAQAGGLDEDGKGPEQNPAEHKPSVIVTRRRSTRIPGTDAQAQAEDMNVKLEGEPSVRKPKQRPRPEPLIIPTKAGTFIAPPVYSNITPYQSHLRSPVRLADHPSERSFELPPYTPPPILSPVREGSGLYFNAIISTSTIPAPPPITPKSAHRTLLRTNSAEVTPPVLSVMGEATPVSIEPRINVGSRFQAEIPLMRDRALAAADPHKADLVWQPWEDLESSREKQRQVEDLLTAACSSIFPGAGTNQELALHCLHESRGDILETLNKLLLKKPLRPHNHPLATYHYTGSDQWKMAERKLFNKGIAIYKKDFFLVQKLIQTKTVAQCVEFYYTYKKQVKIGRNGTLTFGDVDTSDEKSAQEEVEVDIKTSQKFPRVPLPRRESPSEERLEPKREVKEPRKEGEEEVPEIQEKEEQEEGRERSRRAAAVKATQTLQANESASDILILRSHESNAPGSAGGQASEKPREGTGKSRRALPFSEKKKKTETFSKTQNQENTFPCKKCGR
Take B2: the binding result was “binds”.

B3: HIST1H1T (protein, UniProt P22492 1-207)
chain: MSETVPAASASAGVAAMEKLPTKKRGRKPAGLISASRKVPNLSVSKLITEALSVSQERVGMSLVALKKALAAAGYDVEKNNSRIKLSLKSLVNKGILVQTRGTGASGSFKLSKKVIPKSTRSKAKKSVSAKTKKLVLSRDSKSPKTAKTNKRAKKPRATTPKTVRSGRKAKGAKGKQQQKSPVKARASKSKLTQHHEVNVRKATSKK
For B3, the binding result is on record as “binds”.

B4: ACIN1 (protein, UniProt Q9UKV3 1-1341)
chain: MWRRKHPRTSGGTRGVLSGNRGVEYGSGRGHLGTFEGRWRKLPKMPEAVGTDPSTSRKMAELEEVTLDGKPLQALRVTDLKAALEQRGLAKSGQKSALVKRLKGALMLENLQKHSTPHAAFQPNSQIGEEMSQNSFIKQYLEKQQELLRQRLEREAREAAELEEASAESEDEMIHPEGVASLLPPDFQSSLERPELELSRHSPRKSSSISEEKGDSDDEKPRKGERRSSRVRQARAAKLSEGSQPAEEEEDQETPSRNLRVRADRNLKTEEEEEEEEEEEEDDEEEEGDDEGQKSREAPILKEFKEEGEEIPRVKPEEMMDERPKTRSQEQEVLERGGRFTRSQEEARKSHLARQQQEKEMKTTSPLEEEEREIKSSQGLKEKSKSPSPPRLTEDRKKASLVALPEQTASEEETPPPLLTKEASSPPPHPQLHSEEEIEPMEGPAPAVLIQLSPPNTDADTRELLVSQHTVQLVGGLSPLSSPSDTKAESPAEKVPEESVLPLVQKSTLADYSAQKDLEPESDRSAQPLPLKIEELALAKGITEECLKQPSLEQKEGRRASHTLLPSHRLKQSADSSSSRSSSSSSSSSRSRSRSPDSSGSRSHSPLRSKQRDVAQARTHANPRGRPKMGSRSTSESRSRSRSRSRSASSNSRKSLSPGVSRDSSTSYTETKDPSSGQEVATPPVPQLQVCEPKERTSTSSSSVQARRLSQPESAEKHVTQRLQPERGSPKKCEAEEAEPPAATQPQTSETQTSHLPESERIHHTVEEKEEVTMDTSENRPENDVPEPPMPIADQVSNDDRPEGSVEDEEKKESSLPKSFKRKISVVSATKGVPAGNSDTEGGQPGRKRRWGASTATTQKKPSISITTESLKSLIPDIKPLAGQEAVVDLHADDSRISEDETERNGDDGTHDKGLKICRTVTQVVPAEGQENGQREEEEEEKEPEAEPPVPPQVSVEVALPPPAEHEVKKVTLGDTLTRRSISQQKSGVSITIDDPVRTAQVPSPPRGKISNIVHISNLVRPFTLGQLKELLGRTGTLVEEAFWIDKIKSHCFVTYSTVEEAVATRTALHGVKWPQSNPKFLCADYAEQDELDYHRGLLVDRPSETKTEEQGIPRPLHPPPPPPVQPPQHPRAEQREQERAVREQWAEREREMERRERTRSEREWDRDKVREGPRSRSRSRDRRRKERAKSKEKKSEKKEKAQEEPPAKLLDDLFRKTKAAPCIYWLPLTDSQIVQKEAERAERAKEREKRRKEQEEEEQKEREKEAERERNRQLEREKRREHSRERDRERERERERDRGDRDRDRERDRERGRERDRRDTKRHSRSRSRSTPVRDRGGRR
As for B4, the binding entry was “binds”.

B5: MBD3L2 (protein, UniProt Q8NHZ7 1-208)
chain: MGEPAFTSFPSLPVLGKLKRNMMPWALQKKREIHMAKAHRRRAARSALPMRLTSCIFRRPVTRIRSHPDNQVRRRKGDEHLEKPQQLCAYRRLQALQPCSSQGEGSSPLHLESVLSILAPGTAGESLDRAGAERVRSPLEPTPGRFPAVAGGPTPGMGCQLPPPLSGQLVTPADIRRQARRVKKARERLAKALQADRLARRAEMLTGG
Consider B5, for which the binding result is “binds”.

B6: RB1 (protein, UniProt P06400 1-928)
chain: MPPKTPRKTAATAAAAAAEPPAPPPPPPPEEDPEQDSGPEDLPLVRLEFEETEEPDFTALCQKLKIPDHVRERAWLTWEKVSSVDGVLGGYIQKKKELWGICIFIAAVDLDEMSFTFTELQKNIEISVHKFFNLLKEIDTSTKVDNAMSRLLKKYDVLFALFSKLERTCELIYLTQPSSSISTEINSALVLKVSWITFLLAKGEVLQMEDDLVISFQLMLCVLDYFIKLSPPMLLKEPYKTAVIPINGSPRTPRRGQNRSARIAKQLENDTRIIEVLCKEHECNIDEVKNVYFKNFIPFMNSLGLVTSNGLPEVENLSKRYEEIYLKNKDLDARLFLDHDKTLQTDSIDSFETQRTPRKSNLDEEVNVIPPHTPVRTVMNTIQQLMMILNSASDQPSENLISYFNNCTVNPKESILKRVKDIGYIFKEKFAKAVGQGCVEIGSQRYKLGVRLYYRVMESMLKSEEERLSIQNFSKLLNDNIFHMSLLACALEVVMATYSRSTSQNLDSGTDLSFPWILNVLNLKAFDFYKVIESFIKAEGNLTREMIKHLERCEHRIMESLAWLSDSPLFDLIKQSKDREGPTDHLESACPLNLPLQNNHTAADMYLSPVRSPKKKGSTTRVNSTANAETQATSAFQTQKPLKSTSLSLFYKKVYRLAYLRLNTLCERLLSEHPELEHIIWTLFQHTLQNEYELMRDRHLDQIMMCSMYGICKVKNIDLKFKIIVTAYKDLPHAVQETFKRVLIKEEEYDSIIVFYNSVFMQRLKTNILQYASTRPPTLSPIPHIPRSPYKFPSSPLRIPGGNIYISPLKSPYKISEGLPTPTKMTPRSRILVSIGESFGTSEKFQKINQMVCNSDRVLKRSAEGSNPPKPLKKLRFDIEGSDEADGSKHLPGESKFQQKLAEMTSTRTRMQKQKMNDSMDTSNKEEK
Take B6: the binding result is listed as “binds”.

B7: SMC1A (protein, UniProt Q14683 1-1233)
chain: MGFLKLIEIENFKSYKGRQIIGPFQRFTAIIGPNGSGKSNLMDAISFVLGEKTSNLRVKTLRDLIHGAPVGKPAANRAFVSMVYSEEGAEDRTFARVIVGGSSEYKINNKVVQLHEYSEELEKLGILIKARNFLVFQGAVESIAMKNPKERTALFEEISRSGELAQEYDKRKKEMVKAEEDTQFNYHRKKNIAAERKEAKQEKEEADRYQRLKDEVVRAQVQLQLFKLYHNEVEIEKLNKELASKNKEIEKDKKRMDKVEDELKEKKKELGKMMREQQQIEKEIKEKDSELNQKRPQYIKAKENTSHKIKKLEAAKKSLQNAQKHYKKRKGDMDELEKEMLSVEKARQEFEERMEEESQSQGRDLTLEENQVKKYHRLKEEASKRAATLAQELEKFNRDQKADQDRLDLEERKKVETEAKIKQKLREIEENQKRIEKLEEYITTSKQSLEEQKKLEGELTEEVEMAKRRIDEINKELNQVMEQLGDARIDRQESSRQQRKAEIMESIKRLYPGSVYGRLIDLCQPTQKKYQIAVTKVLGKNMDAIIVDSEKTGRDCIQYIKEQRGEPETFLPLDYLEVKPTDEKLRELKGAKLVIDVIRYEPPHIKKALQYACGNALVCDNVEDARRIAFGGHQRHKTVALDGTLFQKSGVISGGASDLKAKARRWDEKAVDKLKEKKERLTEELKEQMKAKRKEAELRQVQSQAHGLQMRLKYSQSDLEQTKTRHLALNLQEKSKLESELANFGPRINDIKRIIQSREREMKDLKEKMNQVEDEVFEEFCREIGVRNIREFEEEKVKRQNEIAKKRLEFENQKTRLGIQLDFEKNQLKEDQDKVHMWEQTVKKDENEIEKLKKEEQRHMKIIDETMAQLQDLKNQHLAKKSEVNDKNHEMEEIRKKLGGANKEMTHLQKEVTAIETKLEQKRSDRHNLLQACKMQDIKLPLSKGTMDDISQEEGSSQGEDSVSGSQRISSIYAREALIEIDYGDLCEDLKDAQAEEEIKQEMNTLQQKLNEQQSVLQRIAAPNMKAMEKLESVRDKFQETSDEFEAARKRAKKAKQAFEQIKKERFDRFNACFESVATNIDEIYKALSRNSSAQAFLGPENPEEPYLDGINYNCVAPGKRFRPMDNLSGGEKTVAALALLFAIHSYKPAPFFVLDEIDAALDNTNIGKVANYIKEQSTCNFQAIVISLKEEFYTKAESLIGVYPEQGDCVISKVLTFDLTKYPDANPNPNEQ
For B7, the binding result was “binds”.

B8: TOX4 (protein, UniProt O94842 1-621)
chain: MEFPGGNDNYLTITGPSHPFLSGAETFHTPSLGDEEFEIPPISLDSDPSLAVSDVVGHFDDLADPSSSQDGSFSAQYGVQTLDMPVGMTHGLMEQGGGLLSGGLTMDLDHSIGTQYSANPPVTIDVPMTDMTSGLMGHSQLTTIDQSELSSQLGLSLGGGTILPPAQSPEDRLSTTPSPTSSLHEDGVEDFRRQLPSQKTVVVEAGKKQKAPKKRKKKDPNEPQKPVSAYALFFRDTQAAIKGQNPNATFGEVSKIVASMWDSLGEEQKQVYKRKTEAAKKEYLKALAAYKDNQECQATVETVELDPAPPSQTPSPPPMATVDPASPAPASIEPPALSPSIVVNSTLSSYVANQASSGAGGQPNITKLIITKQMLPSSITMSQGGMVTVIPATVVTSRGLQLGQTSTATIQPSQQAQIVTRSVLQAAAAAAAAASMQLPPPRLQPPPLQQMPQPPTQQQVTILQQPPPLQAMQQPPPQKVRINLQQQPPPLQIKSVPLPTLKMQTTLVPPTVESSPERPMNNSPEAHTVEAPSPETICEMITDVVPEVESPSQMDVELVSGSPVALSPQPRCVRSGCENPPIVSKDWDNEYCSNECVVKHCRDVFLAWVASRNSNTVVFVK
In the case of B8, the binding entry is recorded as “binds”.
